Assay [1] addresses T1, VPS33b with GFP1-10 cloned onto its C-terminus (VPSbarrel) (UniProt P59016).
T1 sequence: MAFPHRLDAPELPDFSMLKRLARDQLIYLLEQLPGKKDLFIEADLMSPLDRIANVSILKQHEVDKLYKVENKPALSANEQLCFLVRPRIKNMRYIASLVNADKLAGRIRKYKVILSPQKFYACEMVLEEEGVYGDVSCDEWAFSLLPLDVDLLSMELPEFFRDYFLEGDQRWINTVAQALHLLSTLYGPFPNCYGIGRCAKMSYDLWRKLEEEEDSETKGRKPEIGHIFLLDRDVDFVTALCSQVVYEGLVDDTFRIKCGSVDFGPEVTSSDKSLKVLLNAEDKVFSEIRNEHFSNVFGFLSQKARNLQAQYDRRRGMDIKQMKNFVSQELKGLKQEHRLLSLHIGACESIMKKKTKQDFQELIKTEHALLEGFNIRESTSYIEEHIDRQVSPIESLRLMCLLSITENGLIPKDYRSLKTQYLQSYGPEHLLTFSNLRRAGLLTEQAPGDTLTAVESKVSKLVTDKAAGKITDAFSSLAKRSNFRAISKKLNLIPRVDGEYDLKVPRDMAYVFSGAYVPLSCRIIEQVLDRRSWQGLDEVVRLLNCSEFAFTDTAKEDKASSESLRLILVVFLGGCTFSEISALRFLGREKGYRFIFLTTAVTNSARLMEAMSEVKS
As to the kind of experiment: split reporter.

By UniProt entry, the sequences of proteins in these tests, tags left out. Where a name states a change or a piece, a line headed by the entry shows the natural chain unless it says otherwise.
UniProt P11087: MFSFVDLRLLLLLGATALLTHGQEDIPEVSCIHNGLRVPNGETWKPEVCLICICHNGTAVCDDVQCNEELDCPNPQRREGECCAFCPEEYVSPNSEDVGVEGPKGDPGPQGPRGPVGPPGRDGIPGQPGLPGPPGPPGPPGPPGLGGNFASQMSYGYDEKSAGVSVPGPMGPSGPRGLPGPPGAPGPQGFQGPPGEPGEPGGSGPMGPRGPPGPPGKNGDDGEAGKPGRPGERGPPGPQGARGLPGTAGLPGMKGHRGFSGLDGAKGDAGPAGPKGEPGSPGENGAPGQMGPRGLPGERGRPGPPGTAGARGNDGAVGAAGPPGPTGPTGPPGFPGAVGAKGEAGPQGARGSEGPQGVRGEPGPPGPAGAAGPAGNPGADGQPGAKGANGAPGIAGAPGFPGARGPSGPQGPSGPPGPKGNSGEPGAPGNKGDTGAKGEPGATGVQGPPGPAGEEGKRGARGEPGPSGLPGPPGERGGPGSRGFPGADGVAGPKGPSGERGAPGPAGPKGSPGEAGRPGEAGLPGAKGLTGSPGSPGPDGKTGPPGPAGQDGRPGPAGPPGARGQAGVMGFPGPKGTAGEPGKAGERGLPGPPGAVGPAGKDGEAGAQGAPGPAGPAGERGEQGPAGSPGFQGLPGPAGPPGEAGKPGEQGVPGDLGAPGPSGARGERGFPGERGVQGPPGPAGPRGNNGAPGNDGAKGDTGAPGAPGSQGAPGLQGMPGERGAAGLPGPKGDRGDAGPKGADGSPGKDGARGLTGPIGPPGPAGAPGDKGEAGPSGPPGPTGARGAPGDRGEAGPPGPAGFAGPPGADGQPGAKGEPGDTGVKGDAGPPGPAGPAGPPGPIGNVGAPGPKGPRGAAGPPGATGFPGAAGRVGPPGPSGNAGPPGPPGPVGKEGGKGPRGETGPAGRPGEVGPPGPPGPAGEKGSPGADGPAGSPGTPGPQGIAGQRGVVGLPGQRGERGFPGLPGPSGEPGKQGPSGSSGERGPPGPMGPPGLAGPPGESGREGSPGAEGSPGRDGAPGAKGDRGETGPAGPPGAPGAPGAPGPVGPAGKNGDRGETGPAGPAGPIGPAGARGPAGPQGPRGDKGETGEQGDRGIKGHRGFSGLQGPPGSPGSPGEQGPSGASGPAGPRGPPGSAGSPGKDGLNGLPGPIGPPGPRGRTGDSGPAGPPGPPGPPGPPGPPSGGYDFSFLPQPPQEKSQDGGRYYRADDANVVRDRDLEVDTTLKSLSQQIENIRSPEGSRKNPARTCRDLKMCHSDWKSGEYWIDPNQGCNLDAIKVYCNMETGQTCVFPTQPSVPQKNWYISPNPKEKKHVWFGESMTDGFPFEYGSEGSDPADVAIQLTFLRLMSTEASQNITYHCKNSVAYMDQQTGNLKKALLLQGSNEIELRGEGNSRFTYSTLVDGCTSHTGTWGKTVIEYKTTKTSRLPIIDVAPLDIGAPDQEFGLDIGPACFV

For assay [2], the target named is T1, VPS33b with GFP1-10 cloned onto its C-terminus (VPSbarrel). Kind of assay: split reporter. The source holds these as a separate data set.

Read-outs that look alike come from different tables or passages of the source. Results are given in words; binding and its absence hold for the method and conditions named. In cells and extracts the contact can be indirect. A result given as binding can be weak or reduced; the word gives no strength. Sequences can lack the tags named with a protein.

Take “proα1(I) chain of collagen-I with the GFP11 peptide (colI-GFP11) (from UniProt P11087)”: the binding result in assay [1] and in assay [2] was “binds” each time.

The values above are taken from doi:10.1101/2021.03.25.436925.
